Source: PubChem BioAssay AID1347075 (National Center for Advancing Translational Sciences (NCATS), 2019)
In all, about 400,000 compounds went through this assay and about 5,500 (1.4%) were called active. Inconclusive means that the source gave no clear call. Such entries were picked first, then a sample of the others. Calls follow the shape of the dose curve; as a rule, active = well fitted cell-killing curve with a large enough effect; inconclusive = small, poorly fitted or top-dose-only effect, or effect the other way; inactive = flat fitted curve, though single readings scatter. A potency beside an inconclusive call is a rough fit, not a confirmed value.
% is scaled to controls: 0 for no effect and ±100 for the full control effect; potency is read from the fitted curve at half-maximal effect.

Assay: qHTS assay for MDR1-selective chemotherapeutics: Primary screen using the parental adenocarcinoma cell KB-3-1; also: nearly all actives have a fitted effect of over 60% in size
Conditions: KB-3-1 viability, CellTiter-Glo ATP luminescence, 72 h; activity change, negative = cytotoxic: at 46.1 µM (top of the series)
How it was run: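 Screening of KB-3-1 cells (DMEM, 10% FBS, phenol-red free) ran from lowest to highest compound concentration; after 72 h at 37 °C viability was read luminescently and curves fitted.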
With `C#CCSc1nnc(-c2cccc3ccccc23)o1` the Potency was inconclusive: 18.4 µM [cytotoxic, partial curve, poor fit].
With `O=C(COC(=O)c1ccc(S(=O)(=O)N2CCOCC2)cc1)Nc1ccccc1F` the activity change, negative = cytotoxic was inconclusive: -42.7%.
With `CN(C)Cc1c(O)ccc2c(-c3ccccc3)cc(=O)oc12` the “activity change, negative = cytotoxic” value was inactive: 0.038%.
In the case of `CCOc1ccc(CCNC(=O)CCCn2c(=O)c3cccn3c3cccnc32)cc1OCC`, the Potency is reported as inconclusive: 0.164 µM [rising, full curve].
For `O=C(CC1(O)C(=O)N(CCc2ccccc2)c2ccc(Br)cc21)c1ccc(F)cc1` (stereo not given), the Potency was inconclusive: 23.1 µM [cytotoxic, single point].
For `CSc1ccc(CNC(=O)C2CCCN(S(=O)(=O)N(C)c3ccc(F)cc3)C2)cc1` (stereo not given), the Potency was active: 16.4 µM.
In the case of `COc1ccccc1N(C)c1cc2c(c3c1ccn3C)C1CCC2O1` (stereo not given), the Potency is reported as inconclusive: 29.1 µM [cytotoxic, single point].
For `CCSc1nsc(NC(=O)Nc2cccc(F)c2)n1`, the Potency was inconclusive: 29.1 µM [cytotoxic, single point].
With `Cc1cc(C)c2c(c1)/C(=N/NS(=O)(=O)c1ccc(Br)cc1)CCC2` the “activity change, negative = cytotoxic” value was inactive: 2.69%.
In the case of `C/C(Cl)=C\Cn1c(O)c(N=NC(N)=S)c2cc(Br)ccc21`, the Potency is reported as inconclusive: 25.9 µM [cytotoxic, single point].
With `Cc1c(Nc2nc3ccccc3nc2NS(=O)(=O)c2cccs2)c(=O)n(-c2ccccc2)n1C` the Potency was inconclusive: 29.1 µM [rising, single point].
With `CCCCCCn1c(=O)n2n(c1=O)C[C@]1(OC(=O)NCc3ccccc3)CN(S(=O)(=O)c3ccc(C)cc3)C[C@]1(O)C2` the Potency was inconclusive: 29.1 µM [cytotoxic, single point].
For `Cc1ccc(S(=O)(=O)NCC2CCC(C(=O)NCc3ccc(F)cc3)CC2)cc1` (stereo not given), the Potency was inconclusive: 0.0184 µM [rising, full curve].
With `O=C1c2ccccc2C(=O)N1CCSc1nnc(-c2ccco2)n1Cc1ccccc1` the Potency was inconclusive: 0.0366 µM [rising, full curve].
In the case of `Cc1ccc(NC(=O)CSc2nc3ccccc3c3nc4ccccc4n23)cc1`, the Potency is reported as active: 0.92 µM.
With `O=C(O)c1cnc(-c2ccccc2)nc1Oc1ccc(Cl)cc1` the “activity change, negative = cytotoxic” value was inactive: 18.8%.
In the case of `CN(C)c1cccc(C(=O)NNC(=O)CN2C(=O)C3CC=CCC3C2=O)c1` (stereo not given), the Potency is reported as inconclusive: 18.4 µM [rising, partial curve].
For `O=C(c1ccc(Br)cc1)N(Cc1nc2ccccc2c(=O)[nH]1)C1CCCC1`, the Potency was active: 16.4 µM.
With `O=C(c1cc(COc2ccc3ncccc3c2)on1)N1CCCC1` the Potency was inconclusive: 29.1 µM [cytotoxic, single point].
With `COC(=O)c1c(NC(=O)Cc2cccs2)sc(C(=O)N2CCCCC2)c1C` the “activity change, negative = cytotoxic” value was inactive: 7.68%.
For `COc1cc2cc(CNc3ccccc3)c(=O)n(CC(=O)Nc3ccccc3)c2cc1OC`, the “activity change, negative = cytotoxic” value was inactive: -11%.
For `Cc1c(C(=O)NCc2ccccc2)oc2ccc(S(=O)(=O)N3CCC4(CC3)OCCO4)cc12`, the “activity change, negative = cytotoxic” value was inactive: -12.3%.
In the case of `CN1N=C(N)c2cn(C3OC(COP(=O)(O)O)C(O)C3O)c3ncnc1c23` (stereo not given), the Potency is reported as active: 1.84 µM.
For `CCc1cccc(NC(=O)c2cn3c4c(ccc(Cl)c4c2=O)OC(C)C3)c1` (stereo not given), the “activity change, negative = cytotoxic” value was inactive: -0.327%.
With `CC1CCCCN1C(=O)Cn1c(=O)n(-c2ccc(Cl)cc2)c(=O)c2c3c(sc21)CCC3` (stereo not given) the “activity change, negative = cytotoxic” value was inactive: 20.1%.
For `CCc1nc2c(OCc3ccc(C(F)(F)F)cc3)cccn2c1N(C)C(=O)CC(C)C`, the Potency was inconclusive: 29.1 µM [cytotoxic, single point].
In the case of `N#Cc1c(N2CCCC(O)C2)nc(N)c2c(N)nc3c(c12)CC(=O)N3C12CC3CC(CC(C3)C1)C2` (stereo not given), the Potency is reported as active: 4.11 µM.
For `CCN(CC)S(=O)(=O)c1ccc(N2CCOCC2)c(NC(=O)Cc2cccc3ccccc23)c1`, the “activity change, negative = cytotoxic” value was inactive: -2.73%.
For `CC(C)n1cnc2c(N(C)c3ccccc3)nc(N(CCN(C)C)Cc3ccccc3)nc21`, the Potency was inconclusive: 16.4 µM [cytotoxic, single point].
For `O=C1c2ccccc2-c2nnc(-c3ccc(F)cc3)cc21`, the Potency was inconclusive: 18.4 µM [cytotoxic, partial curve].
For `Fc1ccccc1N1CCN(Cc2cc(-c3ccccc3)on2)CC1`, the Potency was inconclusive: 32.6 µM [cytotoxic, single point].
In the case of `CC(C)(C)C(=O)N/C(N)=N/c1nc2ccccc2o1`, the Potency is reported as inconclusive: 29.1 µM [cytotoxic, single point].
In the case of `Cc1ccc(-n2ncc(C(=O)NCCc3ccccc3)c2C2CCN(C(=O)OC(C)(C)C)CC2)c(C)c1`, the Potency is reported as inconclusive: 29.1 µM [cytotoxic, single point].
With `COC(=O)c1ccc(CN2CCc3ccc(NC(=O)c4ccncc4)cc3C2)cc1` the Potency was inconclusive: 1.16 µM [cytotoxic, partial curve, poor fit].
In the case of `Cc1ccc(-n2c(-c3ccncc3)n[nH]c2=S)cc1`, the Potency is reported as inconclusive: 16.4 µM [rising, partial curve, poor fit].
For `CCN1CCCc2cc(CN(CCN3CCOCC3)C(=S)Nc3cccc(C)c3)ccc21`, the Potency was inconclusive: 29.1 µM [cytotoxic, single point].
With `COc1ccc(Cn2c(=N)c(C(=O)NCC3CCCO3)cc3c(=O)n4ccccc4nc32)cc1` (stereo not given) the “activity change, negative = cytotoxic” value was inactive: -0.632%.
With `N/C(=N\c1nc2ccccc2o1)NC(=O)c1ccccc1Br` the “activity change, negative = cytotoxic” value was inactive: 1.17%.
For `CCN(CC)S(=O)(=O)c1ccc(NN=C2CCN(C)CC2)c([N+](=O)[O-])c1`, the Potency was inconclusive: 23.1 µM [cytotoxic, single point].
For `CC1=C(C(=O)N(C(C)C)C(C)C)CC(CC(=O)NCCc2ccccn2)C(=O)N1Cc1ccc(F)cc1` (stereo not given), the “activity change, negative = cytotoxic” value was inactive: -7.98%.
For `O=C(Cc1cccs1)NC(c1ccccc1)c1ccccc1`, the “activity change, negative = cytotoxic” value was inactive: 3.63%.
For `O=C(NCCc1ccccc1Cl)c1ccc2c(c1)nc1n2CCOC1`, the “activity change, negative = cytotoxic” value was inactive: -1.39%.
In the case of `CCc1ccc(C2c3[nH]c4ccccc4c3CCN2C(=O)CN2CCN(CC)CC2)cc1` (stereo not given), the Potency is reported as inconclusive: 29.1 µM [cytotoxic, single point].
In the case of `CC(=O)c1cccc(CN2CCCC(N3CCN(c4ccccc4F)CC3)C2)c1` (stereo not given), the “activity change, negative = cytotoxic” value is reported as inactive: 0.863%.
In the case of `Cc1ccc(NC(=O)CNS(=O)(=O)c2cccs2)cc1F`, the Potency is reported as inconclusive: 29.1 µM [cytotoxic, single point].
